{"sequences": {"note": "By UniProt entry, the sequences of proteins in these tests, tags left out. Where a name states a change or a piece, a line headed by the entry shows the natural chain unless it says otherwise. Residues count along the entry.", "UniProt O43583": "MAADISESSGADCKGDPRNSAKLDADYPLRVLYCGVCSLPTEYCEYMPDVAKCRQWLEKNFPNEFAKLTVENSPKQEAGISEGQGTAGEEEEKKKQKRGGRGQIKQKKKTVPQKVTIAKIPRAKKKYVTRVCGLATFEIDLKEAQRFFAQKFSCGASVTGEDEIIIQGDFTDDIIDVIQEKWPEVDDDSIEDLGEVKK", "UniProt Q99543": "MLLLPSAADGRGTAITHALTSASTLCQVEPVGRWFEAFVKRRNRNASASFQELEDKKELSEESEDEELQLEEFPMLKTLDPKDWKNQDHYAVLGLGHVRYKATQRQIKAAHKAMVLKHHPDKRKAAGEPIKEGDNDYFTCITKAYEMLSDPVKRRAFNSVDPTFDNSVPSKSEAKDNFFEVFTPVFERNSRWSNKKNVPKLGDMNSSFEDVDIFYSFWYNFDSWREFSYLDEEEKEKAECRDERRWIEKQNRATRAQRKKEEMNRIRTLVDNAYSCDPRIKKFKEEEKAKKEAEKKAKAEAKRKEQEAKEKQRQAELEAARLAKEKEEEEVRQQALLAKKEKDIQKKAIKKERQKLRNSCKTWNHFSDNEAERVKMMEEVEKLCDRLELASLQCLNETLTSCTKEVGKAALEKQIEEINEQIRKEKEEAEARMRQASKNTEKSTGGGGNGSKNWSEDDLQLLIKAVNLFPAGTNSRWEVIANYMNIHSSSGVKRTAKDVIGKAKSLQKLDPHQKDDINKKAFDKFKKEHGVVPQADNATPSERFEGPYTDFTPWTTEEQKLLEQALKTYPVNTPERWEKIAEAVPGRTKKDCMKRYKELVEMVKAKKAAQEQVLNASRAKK", "UniProt Q8IWF6, 200-221": "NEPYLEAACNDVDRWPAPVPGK", "UniProt Q96KC8": "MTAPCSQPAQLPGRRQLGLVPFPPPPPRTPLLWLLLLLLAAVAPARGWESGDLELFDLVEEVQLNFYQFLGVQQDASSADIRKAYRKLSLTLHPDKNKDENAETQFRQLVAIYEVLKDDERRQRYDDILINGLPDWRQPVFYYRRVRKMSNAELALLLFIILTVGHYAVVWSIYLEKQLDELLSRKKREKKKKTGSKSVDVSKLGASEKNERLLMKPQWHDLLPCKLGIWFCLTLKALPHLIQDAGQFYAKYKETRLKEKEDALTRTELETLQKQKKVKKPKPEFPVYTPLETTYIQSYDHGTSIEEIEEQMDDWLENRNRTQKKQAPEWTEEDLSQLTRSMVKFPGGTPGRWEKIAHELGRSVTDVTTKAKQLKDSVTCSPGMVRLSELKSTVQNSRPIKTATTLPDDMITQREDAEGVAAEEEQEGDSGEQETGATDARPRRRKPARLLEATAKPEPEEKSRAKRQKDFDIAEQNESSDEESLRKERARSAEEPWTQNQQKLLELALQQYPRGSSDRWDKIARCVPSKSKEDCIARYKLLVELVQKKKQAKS", "UniProt Q08211, whole entry, looked up": "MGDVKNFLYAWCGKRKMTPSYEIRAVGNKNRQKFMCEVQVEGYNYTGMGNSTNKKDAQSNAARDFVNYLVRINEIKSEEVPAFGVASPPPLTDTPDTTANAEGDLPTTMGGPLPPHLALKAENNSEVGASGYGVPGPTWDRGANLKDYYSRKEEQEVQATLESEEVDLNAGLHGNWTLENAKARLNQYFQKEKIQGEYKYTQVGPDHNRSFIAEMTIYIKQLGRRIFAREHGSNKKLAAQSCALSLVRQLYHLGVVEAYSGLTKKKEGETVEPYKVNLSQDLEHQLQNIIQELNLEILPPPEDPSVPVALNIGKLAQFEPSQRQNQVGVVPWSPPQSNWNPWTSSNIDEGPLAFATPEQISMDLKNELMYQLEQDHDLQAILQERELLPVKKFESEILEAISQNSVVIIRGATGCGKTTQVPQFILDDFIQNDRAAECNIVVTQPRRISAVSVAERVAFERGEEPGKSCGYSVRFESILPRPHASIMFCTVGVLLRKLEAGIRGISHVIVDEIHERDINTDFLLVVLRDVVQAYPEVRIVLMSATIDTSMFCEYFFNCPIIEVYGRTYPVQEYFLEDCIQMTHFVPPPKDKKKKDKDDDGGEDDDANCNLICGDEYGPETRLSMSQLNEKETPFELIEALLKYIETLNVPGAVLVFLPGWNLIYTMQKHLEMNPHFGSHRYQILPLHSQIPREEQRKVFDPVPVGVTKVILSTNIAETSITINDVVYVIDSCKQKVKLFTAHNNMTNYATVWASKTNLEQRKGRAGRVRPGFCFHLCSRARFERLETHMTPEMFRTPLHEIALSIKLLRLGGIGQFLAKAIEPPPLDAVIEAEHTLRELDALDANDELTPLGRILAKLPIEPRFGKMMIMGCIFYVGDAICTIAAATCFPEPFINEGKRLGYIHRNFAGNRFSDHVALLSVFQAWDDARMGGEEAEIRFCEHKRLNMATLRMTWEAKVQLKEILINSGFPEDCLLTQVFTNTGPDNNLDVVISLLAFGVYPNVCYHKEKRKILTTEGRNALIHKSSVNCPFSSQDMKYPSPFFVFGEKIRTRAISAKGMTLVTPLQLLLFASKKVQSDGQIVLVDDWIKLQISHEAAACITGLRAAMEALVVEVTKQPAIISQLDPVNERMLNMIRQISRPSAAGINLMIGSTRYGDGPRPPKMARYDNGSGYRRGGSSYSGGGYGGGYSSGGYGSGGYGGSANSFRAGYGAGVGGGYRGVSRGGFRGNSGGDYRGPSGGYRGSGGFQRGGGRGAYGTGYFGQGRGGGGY", "UniProt Q5VZ89": "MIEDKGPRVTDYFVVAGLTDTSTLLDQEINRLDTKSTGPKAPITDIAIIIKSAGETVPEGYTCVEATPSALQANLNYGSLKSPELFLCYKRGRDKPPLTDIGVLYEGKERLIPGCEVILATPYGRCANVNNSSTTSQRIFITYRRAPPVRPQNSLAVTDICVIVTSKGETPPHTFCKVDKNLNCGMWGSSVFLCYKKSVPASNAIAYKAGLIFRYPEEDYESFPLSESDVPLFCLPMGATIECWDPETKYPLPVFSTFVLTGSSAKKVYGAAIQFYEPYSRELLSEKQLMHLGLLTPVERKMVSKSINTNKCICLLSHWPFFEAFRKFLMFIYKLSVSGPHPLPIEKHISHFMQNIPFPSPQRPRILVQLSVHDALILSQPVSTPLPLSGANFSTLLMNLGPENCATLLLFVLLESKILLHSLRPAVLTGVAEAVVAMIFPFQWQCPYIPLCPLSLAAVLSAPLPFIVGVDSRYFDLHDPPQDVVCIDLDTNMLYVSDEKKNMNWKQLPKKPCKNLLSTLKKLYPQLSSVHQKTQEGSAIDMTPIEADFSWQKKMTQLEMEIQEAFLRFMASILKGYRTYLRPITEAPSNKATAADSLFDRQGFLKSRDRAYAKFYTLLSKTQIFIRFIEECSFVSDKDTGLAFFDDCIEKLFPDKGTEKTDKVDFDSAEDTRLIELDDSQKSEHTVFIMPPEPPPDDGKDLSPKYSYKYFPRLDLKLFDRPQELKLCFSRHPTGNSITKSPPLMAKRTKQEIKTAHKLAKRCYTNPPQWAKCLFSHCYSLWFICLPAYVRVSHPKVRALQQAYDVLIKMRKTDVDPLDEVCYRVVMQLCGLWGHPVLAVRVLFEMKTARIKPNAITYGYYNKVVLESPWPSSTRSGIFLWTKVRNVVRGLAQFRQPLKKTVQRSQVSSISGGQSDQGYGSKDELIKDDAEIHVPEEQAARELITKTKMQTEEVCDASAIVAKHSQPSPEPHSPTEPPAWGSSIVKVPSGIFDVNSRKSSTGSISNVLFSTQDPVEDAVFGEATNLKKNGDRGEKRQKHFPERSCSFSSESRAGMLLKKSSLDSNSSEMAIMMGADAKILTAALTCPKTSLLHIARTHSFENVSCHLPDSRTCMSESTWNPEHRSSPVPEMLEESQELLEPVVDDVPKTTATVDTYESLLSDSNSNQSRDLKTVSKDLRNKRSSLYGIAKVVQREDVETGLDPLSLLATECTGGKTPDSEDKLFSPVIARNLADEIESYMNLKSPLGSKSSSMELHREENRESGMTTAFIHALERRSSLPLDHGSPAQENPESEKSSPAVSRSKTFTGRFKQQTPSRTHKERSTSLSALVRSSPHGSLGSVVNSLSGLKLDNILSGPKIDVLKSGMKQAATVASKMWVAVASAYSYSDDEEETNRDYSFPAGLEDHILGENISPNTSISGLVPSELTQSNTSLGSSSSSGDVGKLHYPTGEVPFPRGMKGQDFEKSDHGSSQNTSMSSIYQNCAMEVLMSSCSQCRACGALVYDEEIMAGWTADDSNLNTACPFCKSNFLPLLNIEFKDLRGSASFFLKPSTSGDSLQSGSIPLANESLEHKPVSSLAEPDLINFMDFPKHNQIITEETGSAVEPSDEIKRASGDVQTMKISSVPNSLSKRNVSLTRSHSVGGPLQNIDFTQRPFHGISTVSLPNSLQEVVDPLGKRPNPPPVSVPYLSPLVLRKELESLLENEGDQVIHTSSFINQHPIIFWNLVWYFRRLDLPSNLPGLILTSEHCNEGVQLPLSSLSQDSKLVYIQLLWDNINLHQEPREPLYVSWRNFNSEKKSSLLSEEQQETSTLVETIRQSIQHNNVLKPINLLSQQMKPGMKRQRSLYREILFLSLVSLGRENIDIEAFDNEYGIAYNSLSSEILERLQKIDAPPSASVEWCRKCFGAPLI", "UniProt Q99615, 2-26": "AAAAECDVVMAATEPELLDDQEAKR", "UniProt Q9UBM7": "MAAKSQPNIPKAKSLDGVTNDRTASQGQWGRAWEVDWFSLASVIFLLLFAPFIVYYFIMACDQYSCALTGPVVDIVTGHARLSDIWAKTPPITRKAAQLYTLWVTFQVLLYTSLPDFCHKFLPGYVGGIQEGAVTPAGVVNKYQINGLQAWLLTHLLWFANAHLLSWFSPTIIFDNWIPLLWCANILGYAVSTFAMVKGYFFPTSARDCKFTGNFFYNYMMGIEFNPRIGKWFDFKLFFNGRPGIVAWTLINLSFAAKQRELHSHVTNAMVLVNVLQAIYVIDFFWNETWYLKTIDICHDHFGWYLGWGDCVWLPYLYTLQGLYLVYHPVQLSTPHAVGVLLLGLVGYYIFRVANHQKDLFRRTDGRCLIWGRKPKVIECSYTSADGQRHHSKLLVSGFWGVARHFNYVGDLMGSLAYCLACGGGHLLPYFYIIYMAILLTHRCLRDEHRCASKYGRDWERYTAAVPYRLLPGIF", "UniProt Q5T7M9": "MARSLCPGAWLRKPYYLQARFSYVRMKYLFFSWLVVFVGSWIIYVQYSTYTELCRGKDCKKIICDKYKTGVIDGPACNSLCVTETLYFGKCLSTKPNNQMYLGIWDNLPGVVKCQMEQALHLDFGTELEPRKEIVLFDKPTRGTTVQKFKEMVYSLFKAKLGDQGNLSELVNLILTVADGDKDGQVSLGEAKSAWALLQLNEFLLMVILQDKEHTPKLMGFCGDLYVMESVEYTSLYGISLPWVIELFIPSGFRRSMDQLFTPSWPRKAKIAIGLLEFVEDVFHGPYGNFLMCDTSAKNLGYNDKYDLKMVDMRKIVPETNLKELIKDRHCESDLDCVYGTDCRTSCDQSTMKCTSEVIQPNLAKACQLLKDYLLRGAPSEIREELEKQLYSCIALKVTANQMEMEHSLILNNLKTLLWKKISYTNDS", "UniProt Q8WYQ5": "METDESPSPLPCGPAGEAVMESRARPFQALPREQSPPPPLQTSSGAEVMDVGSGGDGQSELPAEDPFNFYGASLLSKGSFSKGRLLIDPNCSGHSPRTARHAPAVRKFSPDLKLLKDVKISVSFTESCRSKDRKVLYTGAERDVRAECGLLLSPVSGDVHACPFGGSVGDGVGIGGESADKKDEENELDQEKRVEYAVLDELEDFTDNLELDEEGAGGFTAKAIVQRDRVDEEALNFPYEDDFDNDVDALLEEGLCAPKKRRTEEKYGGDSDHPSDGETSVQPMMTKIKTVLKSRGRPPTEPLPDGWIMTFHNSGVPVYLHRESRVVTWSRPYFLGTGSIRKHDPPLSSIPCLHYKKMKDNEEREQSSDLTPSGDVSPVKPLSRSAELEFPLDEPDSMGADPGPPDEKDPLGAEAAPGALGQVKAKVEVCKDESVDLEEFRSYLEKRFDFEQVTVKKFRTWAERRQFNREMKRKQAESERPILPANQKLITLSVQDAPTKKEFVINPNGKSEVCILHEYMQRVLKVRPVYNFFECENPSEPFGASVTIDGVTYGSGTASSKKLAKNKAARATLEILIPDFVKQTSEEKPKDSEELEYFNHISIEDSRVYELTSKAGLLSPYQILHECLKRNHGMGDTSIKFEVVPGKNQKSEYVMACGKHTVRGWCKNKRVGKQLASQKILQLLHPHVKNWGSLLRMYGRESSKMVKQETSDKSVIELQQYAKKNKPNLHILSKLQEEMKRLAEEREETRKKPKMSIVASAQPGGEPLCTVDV"}, "source": "the supplement of paper PMC11732987", "about": "“Enantioselective OTUD7B fragment discovery through chemoproteomics screening and high-throughput optimisation” (Communications Chemistry, 2025)", "note": "Some of the results follow. The data scatter; read single values as rough."}
{"compound": "ClCC(=O)N[C@H]1CCCc2ccccc12", "assay": "log2 mean competition ratio of IA-DTB cysteine labelling (DMSO/compound) (log2 ratio); higher = stronger cysteine engagement by compound", "settings": "200 µM; treatment time: 4 h; cell line lysate: HEK293T", "protocol": "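IA-DTB competitive cysteine chemoproteomics in HEK293T RIPA lysate. Lysates were treated with compound 29 or 30 at 50 or 200 µM for 4 h, then IA-DTB (500 µM, 1 h), trypsin-digested, NeutrAvidin-enriched and analysed by diaPASEF. Competition ratio = intensity DMSO / intensity compound (n=4 treated, n=64 DMSO); binding: mean log2 CR ≥ 1 and p ≤ 0.05 plus QC filters. Target is the cysteine site.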"}
{"target": "DHX38 C618 (UniProt Q92620)", "log2 mean competition ratio": -0.271}
{"target": "DOCK11 C492", "log2 mean competition ratio": 0.0137}
{"target": "DNAJC6 C268 (UniProt O75061)", "log2 mean competition ratio": -0.0179}
{"target": "DIAPH3 C195 (UniProt Q9NSV4)", "log2 mean competition ratio": 0.273}
{"target": "DENR C13 (UniProt O43583)", "log2 mean competition ratio": 0.196}
{"target": "DHX29 C1059 (UniProt Q7Z478)", "log2 mean competition ratio": 0.00453}
{"target": "DICER1 C1621 (UniProt Q9UPY3)", "log2 mean competition ratio": 0.11}
{"target": "DNAJC2 C140 (UniProt Q99543)", "log2 mean competition ratio": -0.157}
{"target": "DNMT1 C1339 (UniProt P26358)", "log2 mean competition ratio": -0.15}
{"target": "DENND6A C208 (UniProt Q8IWF6)", "log2 mean competition ratio": -0.123}
{"target": "DHX33 C190 (UniProt Q9H6R0)", "log2 mean competition ratio": -0.0677}
{"target": "DHX57 C598 (UniProt Q6P158)", "log2 mean competition ratio": 0.0255}
{"target": "DNAJC1 C380 (UniProt Q96KC8)", "log2 mean competition ratio": -0.187}
{"target": "DHX15 C226 (UniProt O43143)", "log2 mean competition ratio": 0.0762}
{"target": "DHX36 C640 (UniProt Q9H2U1)", "log2 mean competition ratio": -0.196}
{"target": "DHX34 C189 (UniProt Q14147)", "log2 mean competition ratio": -0.0331}
{"target": "DOLK C99 (UniProt Q9UPQ8)", "log2 mean competition ratio": -0.109}
{"target": "DHX9 C415 (UniProt Q08211)", "log2 mean competition ratio": 0.0164}
{"target": "DOCK6 C384 (UniProt Q96HP0)", "log2 mean competition ratio": 0.00914}
{"target": "DNAJA1 C302 (UniProt P31689)", "log2 mean competition ratio": -0.0279}
{"target": "DENND4A C812 (UniProt Q7Z401)", "log2 mean competition ratio": 0.0838}
{"target": "DLG5 C1207 (UniProt Q8TDM6)", "log2 mean competition ratio": -0.076}
{"target": "DENND4C C1903 (UniProt Q5VZ89)", "log2 mean competition ratio": -0.24}
{"target": "DNAJC13 C2082 (UniProt O75165)", "log2 mean competition ratio": 0.231}
{"target": "DNAJC7 C7 (UniProt Q99615)", "log2 mean competition ratio": -0.00358}
{"target": "DNPH1 C117", "log2 mean competition ratio": 0.222}
{"target": "DNAJC7 C317 (UniProt Q99615)", "log2 mean competition ratio": -0.0455}
{"target": "DMXL1 C191 (UniProt Q9Y485)", "log2 mean competition ratio": -0.17}
{"target": "DNMT3A C387 (UniProt Q9Y6K1)", "log2 mean competition ratio": -0.00563}
{"target": "DNAJC2 C276 (UniProt Q99543)", "log2 mean competition ratio": 0.0298}
{"target": "DMXL1 C543 (UniProt Q9Y485)", "log2 mean competition ratio": 0.242}
{"target": "DHCR7 C380 (UniProt Q9UBM7)", "log2 mean competition ratio": -0.156}
{"target": "DNAAF5 C173 (UniProt Q86Y56)", "log2 mean competition ratio": -0.0159}
{"target": "DIS3L C482 (UniProt Q8TF46)", "log2 mean competition ratio": 0.204}
{"target": "DIPK1A C354 (UniProt Q5T7M9)", "log2 mean competition ratio": 0.402}
{"target": "DONSON C190 (UniProt Q9NYP3)", "log2 mean competition ratio": 0.134}
{"target": "DGCR8 C430 (UniProt Q8WYQ5)", "log2 mean competition ratio": 0.037}
{"target": "DOCK1 C1157 (UniProt Q14185)", "log2 mean competition ratio": -0.15}
